Assay results published in PubChem BioAssay AID1439 (NMMLSC, 2008).
Screen size: about 220,000 compounds; about 770 (0.35%) were called active. The inconclusive results got no clear call from the source; some entries with a clear call stand among them for comparison. No stated cut-off is given here; in the data, active means binding response below about 49% or above about 150%; inconclusive means no clear call, values can overlap the other calls; inactive means in between.

By UniProt entry, the sequences of proteins in these tests, tags left out.
UniProt P09471, whole entry, looked up: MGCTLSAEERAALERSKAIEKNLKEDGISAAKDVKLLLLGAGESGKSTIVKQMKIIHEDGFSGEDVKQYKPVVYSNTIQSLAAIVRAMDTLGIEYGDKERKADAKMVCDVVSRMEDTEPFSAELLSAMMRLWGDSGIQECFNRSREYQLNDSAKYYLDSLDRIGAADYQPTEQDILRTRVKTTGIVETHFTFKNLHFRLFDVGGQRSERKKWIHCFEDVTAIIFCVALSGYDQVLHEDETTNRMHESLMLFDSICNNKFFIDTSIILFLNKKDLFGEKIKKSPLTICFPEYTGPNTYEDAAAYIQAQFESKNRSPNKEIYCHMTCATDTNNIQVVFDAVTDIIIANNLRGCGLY

molecular target: Guanine nucleotide-binding protein G(o) subunit alpha (Homo sapiens) (UniProt P09471); test: RGS7-Galphao binding modulators, primary screen, biochemical, multiplexed bead flow cytometry (AID 1439); conditions: at 10 µM, actives lie on both sides;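 further: fluorescent Galphao held in activated GDP-AlF4 state binding bead-coupled RGS7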

Compound | binding response (% of control)
CCCc1cc(=O)[nH]c(SCC(=O)NN(c2ccccc2)c2ccccc2)n1 | inconclusive: 96.9%
CCC1(CC)Cc2ccccc2C(N)=C1C#N | inactive: 112%
COc1ccc(C(=O)C[n+]2ccc(-c3nnc4n3CCCCC4)cc2)cc1 | inconclusive: 127%
Nc1c(Cl)ncnc1N/N=C/c1cccnc1 | inconclusive: 98.1%
CN1CCN(c2ccccc2/C=N/NC(=O)c2cccnc2)CC1 | inconclusive: 90.3%
Cc1ccc(S(=O)(=O)n2nccc2-c2c(-c3ccc(Cl)cc3)noc2C)cc1 | inconclusive: 106%
COc1ccc(NC(=O)/C=N/O)cc1 | inconclusive: 101%
CC(C)Nc1nc(N)c(C(=O)C23CC4CC(CC(C4)C2)C3)s1 | inconclusive: 96.5%
Cn1c(CCNC(=O)c2ccccc2)nc2ccccc21 | inactive: 102%
Cc1ccccc1CSc1nnc(C)c(=O)n1N | inconclusive: 65.2%
COc1ccccc1C(=O)NC(=O)Nc1nc(-c2ccccc2)cc(C(F)(F)F)n1 | inconclusive: 105%
CC(C)CCC1(CCNC(=O)c2cccs2)CCOC(C)(C)C1 (configuration not stated) | inconclusive: 125%
NC1=NC(=Nc2ccc(S(=O)(=O)N3CCOCC3)cc2)c2ccccc21 | inconclusive: 88.8%
COCc1cc(C)nc(OCC(=O)N/N=C/c2ccc(O)cc2O)c1C#N | inactive: 58%
COc1cc(NC(=O)c2ccc([N+](=O)[O-])cc2)c(OC)cc1NC(=O)CC(C)C | inactive: 97.7%
Cc1ccc(S(=O)(=O)Nc2ncc(C(F)(F)F)cc2Cl)cc1 | inactive: 94.4%
CCOc1ccc2c(c1)n(CO)c(=S)n2CO | active: 176% [activator]
Cc1nnsc1C(=O)N1CCN(c2ccc(F)cc2)CC1 | inconclusive: 108%
CC[C@H](C)/C=C(C)/C=C/C(=O)Cc1cc(O)c(C)c(O)c1C=O | inconclusive: 119%
CNc1nc(SC)n(C)c(=O)c1N=O | inconclusive: 90.8%
OC(C#CCCN1CCCCC1)(c1ccccc1)c1ccccc1 | inconclusive: 38.5%
O=C(CSc1nn(-c2ccc(Cl)cc2)c(=S)s1)NCC1CCCO1 (configuration not stated) | inconclusive: 90.4%
O=S(=O)(NCc1ccccc1)c1ccc(F)cc1Br | inconclusive: 106%
CC1(N(O)/C=C2\C=CC=CC2=O)CCCCC1=O (configuration not stated) | inconclusive: 119%
Cn1nccc1NC(=O)CSCC(=O)O | inconclusive: 96.2%
COc1ccc(/C(C)=N/NC(=O)CNC(=O)CCc2ccccc2)c(OC)c1 | inconclusive: 70.1%
COc1ccc(Br)c2c1C(=O)CC2 | inconclusive: 49.6%

Part of the list above in order of molar mass, ascending.
Compound | binding response (% of control)
CCC1(CC)Cc2ccccc2C(N)=C1C#N | inactive: 112%
Cn1nccc1NC(=O)CSCC(=O)O | inconclusive: 96.2%
O=S(=O)(NCc1ccccc1)c1ccc(F)cc1Br | inconclusive: 106%
COc1ccc(C(=O)C[n+]2ccc(-c3nnc4n3CCCCC4)cc2)cc1 | inconclusive: 127%
COc1ccc(/C(C)=N/NC(=O)CNC(=O)CCc2ccccc2)c(OC)c1 | inconclusive: 70.1%
